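Vaccinia-infected cells with a two-color viral stage reporter; Venus fluorescence read on a plate reader; the cell line is not named here; timing not stated here.
The test concentration is not given here.
Percent change in Venus reporter signal; lower (more negative) values mean stronger inhibition of that viral stage.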

Values are in %.
How 0% and 100% were set is not given here.
Common to all entries: measured here: Venus reporter, other viral stage.
Part of the compounds only, not a random draw; the main read-out is not listed here.

{"compound": "C[C@@H]1CCCCO[C@@H](CN(C)CC2CCCCC2)[C@H](C)CN([C@H](C)CO)C(=O)c2cc(NC(=O)Cc3ccccc3)ccc2O1", "activity change (Venus) (%)": "-65.76"}
{"compound": "COc1ccc(S(=O)(=O)N2CCCCN3[C@@H](CO)[C@H](c4ccc(C#CC5CC5)cc4)[C@@H]3C2)cc1", "activity change (Venus) (%)": "-42.83"}
{"compound": "COc1ccc(CN(C)C[C@@H]2OCCCC[C@H](C)Oc3ccc(NS(=O)(=O)c4ccc(C)cc4)cc3C(=O)N([C@@H](C)CO)C[C@@H]2C)cc1", "activity change (Venus) (%)": "-35.13"}
{"compound": "COc1ccc(NC(=O)Nc2cccc3c2O[C@@H](CN(C)S(=O)(=O)c2ccc(C)cc2)[C@@H](C)CN([C@@H](C)CO)C3=O)cc1", "activity change (Venus) (%)": "-38.74"}
{"compound": "O=S(=O)(c1ccc(F)cc1)N1CCCCN2[C@@H](CO)[C@@H](c3ccc(-c4ccccc4)cc3)[C@@H]2C1", "activity change (Venus) (%)": "-35.36"}
{"compound": "Cc1ccc(S(=O)(=O)Nc2ccc3c(c2)CC(=O)N([C@@H](C)CO)C[C@@H](C)[C@H](CN(C)CC2CCCCC2)O3)cc1", "activity change (Venus) (%)": "-56.58"}
{"compound": "Cc1cc(C(=O)Nc2cccc3c2O[C@@H](CN(C)Cc2ccc(-c4ccccc4)cc2)[C@H](C)CN([C@H](C)CO)C3=O)n(C)n1", "activity change (Venus) (%)": "-40.12"}
{"compound": "C[C@@H]1CN([C@@H](C)CO)C(=O)c2cccc(NC(=O)CCCCCC(=O)Nc3ccccc3N)c2O[C@@H]1CN(C)Cc1ccc(Cl)c(Cl)c1", "activity change (Venus) (%)": "-75.81"}
{"compound": "COc1ccc(CN(C)C[C@H]2OCCCC[C@H](C)Oc3ccc(NC(=O)CCC(F)(F)F)cc3C(=O)N([C@@H](C)CO)C[C@@H]2C)cc1", "activity change (Venus) (%)": "-29.26"}
{"compound": "O=C(c1cccc(F)c1)N1CC(=O)N2[C@H](CO)[C@H](c3ccc(C#Cc4ccc(F)cc4)cc3)[C@@H]2C1", "activity change (Venus) (%)": "-36.27"}
{"compound": "C[C@@H]1CN([C@H](C)CO)S(=O)(=O)c2ccc(C3=CCCC3)cc2O[C@H]1CN(C)C(=O)Nc1ccc2c(c1)OCO2", "activity change (Venus) (%)": "-37.09"}
{"compound": "CC(C)CC#Cc1ccc2c(c1)O[C@H](CN(C)C(=O)CC1CC1)[C@@H](C)CN([C@H](C)CO)S2(=O)=O", "activity change (Venus) (%)": "-27.79"}
{"compound": "C[C@@H]1CCCCO[C@@H](CN(C)Cc2ccc(Cl)c(Cl)c2)[C@@H](C)CN([C@H](C)CO)C(=O)c2cc(NS(=O)(=O)c3cccs3)ccc2O1", "activity change (Venus) (%)": "-58.77"}
{"compound": "C[C@@H]1CN([C@H](C)CO)C(=O)CCCn2cc(nn2)CO[C@H]1CN(C)C(=O)Nc1ccccc1", "activity change (Venus) (%)": "-9.811"}
{"compound": "CC(C)CC#Cc1ccc([C@H]2[C@H]3CN(C(=O)Nc4ccc(F)cc4)CC(=O)N3[C@H]2CO)cc1", "activity change (Venus) (%)": "-70.94"}
{"compound": "COc1ccc(S(=O)(=O)Nc2ccc3c(c2)C(=O)N([C@@H](C)CO)C[C@H](C)[C@H](CN(C)Cc2ccc(C(F)(F)F)cc2)OCCCC[C@@H](C)O3)cc1", "activity change (Venus) (%)": "-62.15"}
{"compound": "CCCNC(=O)N(C)C[C@H]1Oc2cc(C#Cc3cccc(F)c3)ccc2S(=O)(=O)N([C@H](C)CO)C[C@@H]1C", "activity change (Venus) (%)": "-28.43"}
{"compound": "O=C(C1CCCC1)N1CC(=O)N2[C@H](CO)[C@@H](c3ccc(-c4ccccc4F)cc3)[C@H]2C1", "activity change (Venus) (%)": "-23.34"}
{"compound": "C[C@@H]1CCCCO[C@@H](CN(C)Cc2ccc(C(F)(F)F)cc2)[C@@H](C)CN([C@@H](C)CO)C(=O)c2cc(NC(=O)NC3CCCCC3)ccc2O1", "activity change (Venus) (%)": "-26.97"}

For reference, 2 entries once more:

compound	activity change (Venus) (%)
C[C@@H]1CCCCO[C@@H](CN(C)Cc2ccc(C(F)(F)F)cc2)[C@@H](C)CN([C@@H](C)CO)C(=O)c2cc(NC(=O)NC3CCCCC3)ccc2O1	-26.97
C[C@@H]1CCCCO[C@@H](CN(C)Cc2ccc(Cl)c(Cl)c2)[C@@H](C)CN([C@H](C)CO)C(=O)c2cc(NS(=O)(=O)c3cccs3)ccc2O1	-58.77

Data taken from PubChem BioAssay AID1053133, deposited by Broad Institute (2014).